Experimental data published in PubChem BioAssay AID504467 (National Center for Advancing Translational Sciences (NCATS), 2011).
Screen size: about 330,000 compounds; about 7,700 (2.3%) were called active. Inconclusive means that the source gave no clear call. Such entries were picked first, then a sample of the others. Calls follow the shape of the dose curve; as a rule, active = well fitted inhibition curve with a large enough effect; inconclusive = small, poorly fitted or top-dose-only effect, or effect the other way; inactive = flat fitted curve, though single readings scatter. Potencies of inconclusive entries are doubtful fits and often do not repeat.

Assay: qHTS screen for small molecules that inhibit ELG1-dependent DNA repair in human embryonic kidney (HEK293T) cells expressing luciferase-tagged ELG1; also: nearly all actives have a fitted effect of over 55% in size
Conditions: HEK293T ELG1-luciferase reporter, luminescence, 16 h, DNA damage induced by 5-fluorouridine; activity change, negative = inhibition: at 46.1 µM (top of the series)
Outline: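 Reporter activity after DNA damage by 5-fluorouridine is monitored. Compound-treated cells incubate 16 hr at 37 °C, then ONE-Glo is added for 30 min before luminescence reading.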
% is scaled to controls: 0 for no effect and ±100 for the full control effect; potency is read from the fitted curve at half-maximal effect.

Structure (SMILES) | Potency | activity change, negative = inhibition
O=C1c2ccccc2C(=O)N1CCc1c[nH]c2ccccc12 | inconclusive: 13 µM [activator, partial curve] | –
CC(=O)Nc1ccc(Oc2sc(C(=O)c3ccccc3)c(N)c2C#N)cc1 | inconclusive: 3.26 µM [inhibitor, partial curve] | –
COCc1cc(C)nc2sc(C(=O)Nc3ccc(C(=O)OC)cc3)c(N)c12 | – | inactive: -20.6%
O=C(Nc1ccc(N2CCN(C(=O)c3ccco3)CC2)cc1)C(c1ccccc1)c1ccccc1 | inconclusive: 20.6 µM [inhibitor, partial curve] | –
O=C(NCc1ccco1)c1noc2c1CCCCC2 | inconclusive: 23.1 µM [activator, partial curve] | –
O=C(COc1ccc(Cl)cc1)NC1CCSC1=O (stereo not given) | inconclusive: 25.9 µM [activator, single point] | –
COc1ccc(/C=N/NC(=O)c2ccc(C)cc2)cc1CN1CCN(c2ccc(F)cc2)CC1 | inconclusive: 23.1 µM [inhibitor, single point] | –
C[C@]1(CC/C(=C/CO)CO)[C@H](CO)CC[C@@]23COC(=O)C2=CCC[C@@H]31 | inconclusive: 18.3 µM [activator, partial curve] | –
Cc1c(C(=O)OCC(=O)N(C)c2ccccc2)cccc1[N+](=O)[O-] | – | inactive: 5.56%
Cc1ccsc1-c1nc(C(N)=O)c2[nH]c(=O)n(-c3ccc(Cl)cc3)c2n1 | inconclusive: 29.1 µM [activator, single point] | –
CCOC(=O)c1c(C)[nH]c(C(=O)C(C)OC(=O)c2cccc(OCc3c(C)noc3C)c2)c1C (stereo not given) | inconclusive: 14.6 µM [inhibitor, partial curve] | –
Cc1ccc2[nH]c(C(=O)Nc3ccc(F)cc3)cc2c1 | inconclusive: 6.31 µM [activator, partial curve, poor fit] | –
Cc1ccc(C(=O)Nc2ccccc2)cc1S(=O)(=O)N1CCN(C)CC1 | – | inactive: 3.5%
COc1c(C)cc(C(=O)C2CCCN(C(=O)c3ccc4cc[nH]c4c3)C2)cc1C (stereo not given) | inconclusive: 29.1 µM [inhibitor, single point] | –
COc1cc(/C=C/C(=O)OCC(=O)NNC(=O)c2cc(Cl)ccc2OC)ccc1O | inconclusive: 32.6 µM [inhibitor, single point] | –
CCCCOc1ccc(NC(=O)Nc2nnc(C)s2)cc1 | inconclusive: 10.3 µM [activator, partial curve] | –
O=C(c1ccc(CS(=O)c2ccccc2Cl)o1)N1CCOCC1 (stereo not given) | – | inactive: -4.5%
FC(F)(F)c1nnc2ccc(NCn3nnc4ccccc43)nn12 | inconclusive: 29.1 µM [inhibitor, single point] | –
O=C(CCCc1ccccc1)NCc1ccccc1Cl | inconclusive: 31.6 µM [activator, single point] | –
CSc1cccc(NC(=O)C2CCCN(c3ncnc4c3nc3n4CCCCC3)C2)c1 (stereo not given) | inconclusive: 25.9 µM [inhibitor, partial curve, poor fit] | –
Cn1ccnc1COc1ccc(C=O)cc1 | – | inactive: 2.69%
O=C(Nc1cc(S(=O)(=O)N2CCCCC2)ccc1Cl)C1COc2ccccc2O1 (stereo not given) | inconclusive: 20.6 µM [inhibitor, single point] | –
CCOC(=O)c1cc(S(=O)(=O)N2CCOCC2)cn1C | inconclusive: 18.3 µM [activator, partial curve, poor fit] | –

Structure (SMILES) | Potency | activity change, negative = inhibition
C=CCSC1=C(C#N)C(c2ccccc2Cl)C(C(=O)c2cccs2)C(O)(C(F)(F)F)N1 (stereo not given) | inconclusive: 23.1 µM [inhibitor, partial curve] | –
CN(C)S(=O)(=O)N1CCC(Oc2cccc(C(=O)NC3CCCCCC3)c2)CC1 | active: 16.4 µM | –
COc1ccc(CN(C)S(=O)(=O)c2nnc(NC(=O)c3ccccc3Br)s2)cc1 | – | inactive: 19.1%
CCCOC(=O)c1ccc(NC(=O)C2C3CCC(C3)C2C(=O)O)cc1 (stereo not given) | inconclusive: 14.6 µM [activator, partial curve] | –
Nc1ncnc2c1C1(CCCCC1)Cc1ccccc1-2 | active: 10.3 µM | –
COc1ccc(/C=C/C(=O)NCCN=C2NS(=O)(=O)c3ccccc32)cc1 | – | inactive: -18.9%
CCOC(=O)N1CCN(C(=O)c2ccc(CN(c3ccc(C)c(C)c3)S(C)(=O)=O)cc2)CC1 | inconclusive: 18.4 µM [inhibitor, partial curve] | –
CCC(C)C(=O)Nc1nnc(SCC(=O)NC2CCCCC2)s1 (stereo not given) | – | inactive: -12.9%
O=C(C1CCCN(S(=O)(=O)c2cccc3cccnc23)C1)N1CCN(c2ccc(F)cc2)CC1 (stereo not given) | inconclusive: 20.6 µM [inhibitor, single point] | –
CCOCCn1c(C(C)O)nc2ccccc21 (stereo not given) | inconclusive: 29.1 µM [activator, single point] | –
NC(=O)c1ccccc1NC(=O)/C=C/c1ccc(Cl)cc1 | inconclusive: 4.61 µM [activator, full curve] | –
CCOC(=O)C1CCCN(C2=NC(=O)/C(=C/c3ccc(OC)cc3)S2)C1 (stereo not given) | – | inactive: -14.7%
CSc1nc(NC(C)(C)C)nc(Oc2ccc(=O)n(C)n2)n1 | inconclusive: 18.4 µM [activator, partial curve] | –
Cc1[nH]c(C)c(S(=O)(=O)NCc2ccco2)c1C(=O)N1CCCCC1 | – | inactive: 3.21%
Cc1ccc(NC(=O)NCc2ccncc2)cc1Cl | inconclusive: 20.6 µM [activator, single point] | –
Cc1cccc(C(=O)N(c2ccccn2)C(C)c2ccco2)c1 (stereo not given) | – | inactive: -21.1%
CCOC(=O)Nc1ccc2c(c1)N(C(=O)CN)c1ccccc1CC2 | – | inactive: 0.93%
Cc1oc(-c2cccc(Cl)c2)nc1CS(=O)(=O)CC(=O)NCCCN1CCOCC1 | – | inactive: 13.5%
Cn1c(Cc2ccccc2)nnc1SCc1nc2ccccc2c(=O)[nH]1 | – | inactive: 0.908%
NS(=O)(=O)c1ccc(NC(=O)/C(=C/c2ccncc2)NC(=O)c2ccccc2)cc1 | – | inactive: 15.3%
COc1ccc(C2c3c(-c4ccccc4O)n[nH]c3C(=O)N2Cc2ccco2)cc1 (stereo not given) | inconclusive: 1.46 µM [inhibitor, full curve] | –
Cc1cc(C)n2nc(C(=O)Nc3ccn(Cc4ccccc4C)n3)cc2n1 | inconclusive: 25.9 µM [inhibitor, single point] | –

Fetched one by one from the entries so far:
Structure (SMILES) | Potency | activity change, negative = inhibition
CSc1nc(NC(C)(C)C)nc(Oc2ccc(=O)n(C)n2)n1 | inconclusive: 18.4 µM [activator, partial curve] | –
COc1ccc(CN(C)S(=O)(=O)c2nnc(NC(=O)c3ccccc3Br)s2)cc1 | – | inactive: 19.1%
CCOC(=O)C1CCCN(C2=NC(=O)/C(=C/c3ccc(OC)cc3)S2)C1 (stereo not given) | – | inactive: -14.7%
CCOC(=O)Nc1ccc2c(c1)N(C(=O)CN)c1ccccc1CC2 | – | inactive: 0.93%
